This note sets out measurements from article PMC9584954.

Amino acid sequences for entries named in this document (tags omitted). A change or cut given only in a name is not applied to a line headed by its entry.
UniProt Q6LZK7: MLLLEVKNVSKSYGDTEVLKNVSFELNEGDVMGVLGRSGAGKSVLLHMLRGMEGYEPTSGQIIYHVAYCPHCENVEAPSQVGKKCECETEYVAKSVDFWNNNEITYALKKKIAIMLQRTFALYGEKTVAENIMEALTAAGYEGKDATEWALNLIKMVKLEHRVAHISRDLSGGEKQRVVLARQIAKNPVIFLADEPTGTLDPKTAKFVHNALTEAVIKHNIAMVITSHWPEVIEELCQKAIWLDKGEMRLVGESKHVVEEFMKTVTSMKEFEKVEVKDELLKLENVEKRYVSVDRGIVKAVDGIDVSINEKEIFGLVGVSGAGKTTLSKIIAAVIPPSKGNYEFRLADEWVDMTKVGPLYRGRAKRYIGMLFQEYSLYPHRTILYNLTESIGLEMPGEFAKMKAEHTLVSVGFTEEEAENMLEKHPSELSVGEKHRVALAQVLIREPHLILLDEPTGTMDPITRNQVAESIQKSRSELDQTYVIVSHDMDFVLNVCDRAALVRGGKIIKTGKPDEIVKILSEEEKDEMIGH
UniProt Q6M0W4: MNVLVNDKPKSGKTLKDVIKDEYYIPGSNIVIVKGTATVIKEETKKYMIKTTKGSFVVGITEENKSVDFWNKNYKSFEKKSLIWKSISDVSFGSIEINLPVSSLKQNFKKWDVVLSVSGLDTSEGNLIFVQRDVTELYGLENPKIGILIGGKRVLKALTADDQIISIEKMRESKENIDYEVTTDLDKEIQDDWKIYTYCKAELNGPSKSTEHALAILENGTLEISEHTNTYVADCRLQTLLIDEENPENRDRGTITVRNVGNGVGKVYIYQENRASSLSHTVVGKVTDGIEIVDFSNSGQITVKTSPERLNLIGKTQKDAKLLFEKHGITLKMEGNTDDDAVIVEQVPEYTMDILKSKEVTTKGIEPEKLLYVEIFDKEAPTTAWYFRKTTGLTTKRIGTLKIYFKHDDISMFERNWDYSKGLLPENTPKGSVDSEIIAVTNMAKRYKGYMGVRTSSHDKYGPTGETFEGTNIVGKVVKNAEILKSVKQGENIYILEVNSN
UniProt Q6M050: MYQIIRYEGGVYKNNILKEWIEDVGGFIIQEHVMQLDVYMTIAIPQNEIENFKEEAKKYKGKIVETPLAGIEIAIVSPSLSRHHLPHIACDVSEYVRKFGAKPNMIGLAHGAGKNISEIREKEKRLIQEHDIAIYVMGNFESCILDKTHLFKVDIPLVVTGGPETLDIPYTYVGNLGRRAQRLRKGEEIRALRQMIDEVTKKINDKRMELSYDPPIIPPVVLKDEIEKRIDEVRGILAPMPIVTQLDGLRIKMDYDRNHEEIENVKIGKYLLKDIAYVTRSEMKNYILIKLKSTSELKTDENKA
UniProt Q6LZH2: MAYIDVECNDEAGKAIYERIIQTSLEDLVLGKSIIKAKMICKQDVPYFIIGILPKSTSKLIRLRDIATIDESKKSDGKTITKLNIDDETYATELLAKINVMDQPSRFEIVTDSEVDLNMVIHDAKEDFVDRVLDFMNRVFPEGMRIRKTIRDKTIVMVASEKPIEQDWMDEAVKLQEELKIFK

Assay [1] addresses T1, Flag-Strep2-tagged Methanococcus maripaludis McrC (N-terminal tag) (Methanococcus maripaludis) (UniProt Q6LWZ7).
T1 sequence: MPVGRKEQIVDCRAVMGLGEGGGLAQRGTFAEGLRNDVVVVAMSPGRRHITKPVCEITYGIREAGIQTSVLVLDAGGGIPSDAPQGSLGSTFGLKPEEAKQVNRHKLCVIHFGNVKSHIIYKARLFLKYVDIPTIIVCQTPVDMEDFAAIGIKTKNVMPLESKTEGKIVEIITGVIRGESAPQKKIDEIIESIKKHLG
The experiment in a line: affinity purification with mass spectrometry; pull-down of Flag-Strep2-tagged McrC or McrD expressed from a plasmid in M. maripaludis; co-purified proteins separated by SDS-PAGE and identified by MALDI-TOF MS, relative abundance by LC-MS/MS.

Assay [2] addresses Flag-Strep2-tagged Methanococcus aeolicus McrG (tag at the N-terminus of McrG, NG) (Methanococcus aeolicus). Kind of assay: affinity purification with mass spectrometry; Flag-Strep2-tagged subunit expressed with its mcr operon (full or truncated) in M. maripaludis at 37 °C; lysate on Strep-Tactin Superflow Plus in 100 mM Tris-HCl pH 7.6, 150 mM NaCl, eluted with 2.5 mM desthiobiotin, then Q-Sepharose anion exchange; SDS-PAGE, bands identified by MALDI-TOF MS, relative abundance by LC-MS/MS.

Assay [3] addresses Flag-Strep2-tagged McrG of the ANME-2b_HR1 MCR (uncultured archaeon ANME-2b_HR1). Kind of assay: affinity purification with mass spectrometry; N-terminally Flag-Strep2-tagged McrG with its operon expressed in M. maripaludis grown at 25 °C; Strep-Tactin affinity chromatography, then Strep-Tactin XT magnetic beads; SDS-PAGE, MALDI-TOF MS.
The target in assay [4] is Flag-Strep2-tagged McrG of the ANME-1_BS MCR (uncultured archaeon ANME-1_BS). Described as above.
Assay [5] concerns the target Flag-Strep2-tagged Methanococcus aeolicus McrD (tag at the N-terminal of McrD) (Methanococcus aeolicus). Kind of assay: affinity purification with mass spectrometry; pull-down of Flag-Strep2-tagged McrC or McrD expressed from a plasmid in M. maripaludis; co-purified proteins separated by SDS-PAGE and identified by MALDI-TOF MS, relative abundance by LC-MS/MS.

No constants are given. Whether binding was seen depends on the method and setting. In cells and extracts the contact can be indirect. Here binding means that the protein was enriched with, or labelled near, the bait; the list need not be complete. For some assays here: No binding means not detected with the bait. Tags and fused reporters may be left off the sequences shown.

In the case of “M. maripaludis A2 protein (MCR activation complex component A2) (from UniProt Q6LZK7)”, the binding result in assay [1] is recorded as “binds”.
On to “Methanococcus maripaludis McrA (untagged)”, for which, in assay [1], the binding result is “binds”.
Take “methanogenesis marker protein 3 of M. maripaludis (from UniProt Q6M0W4)”: the binding entry in assay [1] was “binds”.
The same measure, in the same setting: as for “methanogenesis marker protein 7 of M. maripaludis (from UniProt Q6M050)”, the entry is “binds”.
Take “methanogenesis marker protein 17 of M. maripaludis (from UniProt Q6LZH2)”: the binding entry in assay [1] is “binds”.
On the same count and under the same terms, with “untagged host Methanococcus maripaludis McrG” the entry was “binds”.

B1: host Methanococcus maripaludis McrD (protein, UniProt Q6LWZ8 1-159)
chain: MIELEVFPHRYLKAETTEKFLNRAYSLSKVQRVVIHGESLPNKVGYGPAKGTPVNHSEKKEITVKGVPVELMLQVGRLWVLLDDESEIEKIEEICKDLFPFGYRLTKGKFLRNDPTVSDFIKYGESAVDDIDKRLLGATDPRSKFDSSVTIIPKSEKNE
For the molecule B1, in assay [2], the binding entry was “binds”.

B2: Methanococcus maripaludis McrB (untagged) (protein, UniProt Q6LWZ9 1-443)
chain: MVKYEDKISLYDAKGNLVAENVPLEAISPLYNPTIKSMVKNIKRTVAVNLAGIEGTLAAGKIGGKGCQVPGRTLDISAVSNAQAIADEVEKILKVSEDDDTAVKIINGGKQLAVQVPTARLDVAAEYSVSMLSTAMALKEALIKTFNIDMFDGSTVHAAIVGNYPQVMDYAGGNIASLLGAPSMMEGLGYALRNIPVNHAVATTKKNMMNAIAFSSVMEQTATFEMGDAVGSFERQHLLGLAYQGLNADNLVIDFIKANAKGTVGSVVETVIDRAIADGVIVVDKTMSSGFNMYKPADVNKWNAYAAAGLVAAVAVSCGAARAAQNVASVILYFNDILEYETGLPGVDYGRSMGTAVGFSFFSHSIYGGGGPGIFNGNHVVTRHSKGFAIPPVCAAMCADAGTQMFSPEHTSGLVGSVYSAFDEFREPMKYVIEGALSIKDQF
In the case of B2, the binding entry in assay [3] was “binds”; in assay [4] it was “no binding”; in assay [5], “binds”; in assay [2] it was “binds weakly”.
